This is one part of the list. Small differences around the control level are noise.
What follows are targets tested with Cc1nc(Nc2ncc(C(=O)Nc3c(C)cccc3Cl)s2)cc(N2CCN(CCO)CC2)n1 [dasatinib] (assay: log2 fold change of tryptic peptide abundance, ligand vs vehicle (limited proteolysis) (log2 ratio); higher = more trypsin-susceptible (destabilized)). Conditions: ligand concentration: 5 uM; sample: K562 cleared lysate.

Protein sequences, listed by entry. Tags and fused reporters are not part of them. Lines headed by an entry give the natural chain unless they say otherwise; changes in a name come on top.
UniProt P18669: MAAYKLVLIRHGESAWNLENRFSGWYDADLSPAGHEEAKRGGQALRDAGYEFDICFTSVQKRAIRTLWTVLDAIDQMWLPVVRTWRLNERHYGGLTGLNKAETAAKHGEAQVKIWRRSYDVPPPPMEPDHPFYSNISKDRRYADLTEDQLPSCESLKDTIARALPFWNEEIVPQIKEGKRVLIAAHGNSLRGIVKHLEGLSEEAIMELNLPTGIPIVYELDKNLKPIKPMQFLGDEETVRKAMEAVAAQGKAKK
UniProt P25686: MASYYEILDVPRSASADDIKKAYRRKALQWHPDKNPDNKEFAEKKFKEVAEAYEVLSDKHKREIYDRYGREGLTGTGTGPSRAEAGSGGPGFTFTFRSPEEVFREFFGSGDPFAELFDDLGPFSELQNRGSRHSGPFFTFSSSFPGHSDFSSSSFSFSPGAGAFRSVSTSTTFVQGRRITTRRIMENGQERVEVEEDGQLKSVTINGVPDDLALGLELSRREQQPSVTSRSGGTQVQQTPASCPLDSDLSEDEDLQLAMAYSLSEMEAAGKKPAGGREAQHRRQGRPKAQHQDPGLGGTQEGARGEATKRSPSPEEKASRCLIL
UniProt P16118: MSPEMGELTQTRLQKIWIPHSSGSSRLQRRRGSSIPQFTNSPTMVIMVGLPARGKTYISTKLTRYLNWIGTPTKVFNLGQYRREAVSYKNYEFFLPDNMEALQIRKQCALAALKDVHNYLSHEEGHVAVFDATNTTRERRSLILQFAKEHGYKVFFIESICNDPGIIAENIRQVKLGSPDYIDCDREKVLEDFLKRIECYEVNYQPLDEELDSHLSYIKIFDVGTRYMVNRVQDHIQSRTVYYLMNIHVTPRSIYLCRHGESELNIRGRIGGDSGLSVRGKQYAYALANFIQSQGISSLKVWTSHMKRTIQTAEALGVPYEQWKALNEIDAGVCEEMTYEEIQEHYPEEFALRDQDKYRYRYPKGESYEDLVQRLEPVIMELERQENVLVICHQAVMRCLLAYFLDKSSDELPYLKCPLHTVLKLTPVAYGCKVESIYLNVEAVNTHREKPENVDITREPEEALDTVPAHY
UniProt P17029: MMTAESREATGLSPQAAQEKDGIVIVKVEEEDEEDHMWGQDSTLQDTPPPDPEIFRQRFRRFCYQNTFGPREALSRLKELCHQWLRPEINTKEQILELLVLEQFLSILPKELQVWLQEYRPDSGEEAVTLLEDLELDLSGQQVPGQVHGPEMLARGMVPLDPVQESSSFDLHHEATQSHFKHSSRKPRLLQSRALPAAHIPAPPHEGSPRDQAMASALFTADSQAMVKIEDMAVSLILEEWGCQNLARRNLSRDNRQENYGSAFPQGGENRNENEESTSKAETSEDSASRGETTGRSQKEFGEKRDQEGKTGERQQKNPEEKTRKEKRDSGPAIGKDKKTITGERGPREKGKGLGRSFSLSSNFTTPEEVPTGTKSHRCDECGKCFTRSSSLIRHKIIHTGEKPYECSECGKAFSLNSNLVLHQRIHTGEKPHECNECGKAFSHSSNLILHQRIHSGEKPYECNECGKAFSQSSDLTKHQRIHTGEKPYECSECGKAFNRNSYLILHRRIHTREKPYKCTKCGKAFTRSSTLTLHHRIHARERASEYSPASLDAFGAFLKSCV
UniProt P24522: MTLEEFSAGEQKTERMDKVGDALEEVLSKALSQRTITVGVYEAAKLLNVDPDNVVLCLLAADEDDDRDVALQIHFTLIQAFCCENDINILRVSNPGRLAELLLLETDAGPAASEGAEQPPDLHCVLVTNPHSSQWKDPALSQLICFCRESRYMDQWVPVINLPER
UniProt P19447: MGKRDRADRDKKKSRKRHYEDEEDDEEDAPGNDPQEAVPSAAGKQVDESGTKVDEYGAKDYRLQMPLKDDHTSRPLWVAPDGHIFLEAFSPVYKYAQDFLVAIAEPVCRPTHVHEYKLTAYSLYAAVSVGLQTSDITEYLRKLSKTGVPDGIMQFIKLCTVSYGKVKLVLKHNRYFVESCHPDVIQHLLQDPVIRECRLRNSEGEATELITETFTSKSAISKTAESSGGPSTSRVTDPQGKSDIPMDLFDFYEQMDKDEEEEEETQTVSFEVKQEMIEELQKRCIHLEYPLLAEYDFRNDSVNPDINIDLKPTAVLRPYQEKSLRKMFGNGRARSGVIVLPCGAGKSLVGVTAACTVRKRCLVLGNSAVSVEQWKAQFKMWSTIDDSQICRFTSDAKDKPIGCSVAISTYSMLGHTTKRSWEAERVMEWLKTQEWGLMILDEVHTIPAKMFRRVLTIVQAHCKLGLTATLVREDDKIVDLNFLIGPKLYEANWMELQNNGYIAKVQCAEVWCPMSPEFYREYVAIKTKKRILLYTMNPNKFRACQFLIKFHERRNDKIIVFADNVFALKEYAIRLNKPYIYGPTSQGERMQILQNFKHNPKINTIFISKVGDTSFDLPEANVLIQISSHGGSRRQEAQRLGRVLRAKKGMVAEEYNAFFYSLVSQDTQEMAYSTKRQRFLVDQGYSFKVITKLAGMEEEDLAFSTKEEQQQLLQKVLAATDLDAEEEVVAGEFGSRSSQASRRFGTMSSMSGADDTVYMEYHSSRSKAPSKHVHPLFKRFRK
UniProt P28072: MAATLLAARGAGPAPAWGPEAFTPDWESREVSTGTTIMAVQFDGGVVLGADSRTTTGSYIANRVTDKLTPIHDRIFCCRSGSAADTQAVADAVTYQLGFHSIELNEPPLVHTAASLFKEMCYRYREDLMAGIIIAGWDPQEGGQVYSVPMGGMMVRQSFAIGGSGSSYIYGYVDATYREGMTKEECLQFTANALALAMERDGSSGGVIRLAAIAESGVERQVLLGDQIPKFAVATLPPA
UniProt P27708: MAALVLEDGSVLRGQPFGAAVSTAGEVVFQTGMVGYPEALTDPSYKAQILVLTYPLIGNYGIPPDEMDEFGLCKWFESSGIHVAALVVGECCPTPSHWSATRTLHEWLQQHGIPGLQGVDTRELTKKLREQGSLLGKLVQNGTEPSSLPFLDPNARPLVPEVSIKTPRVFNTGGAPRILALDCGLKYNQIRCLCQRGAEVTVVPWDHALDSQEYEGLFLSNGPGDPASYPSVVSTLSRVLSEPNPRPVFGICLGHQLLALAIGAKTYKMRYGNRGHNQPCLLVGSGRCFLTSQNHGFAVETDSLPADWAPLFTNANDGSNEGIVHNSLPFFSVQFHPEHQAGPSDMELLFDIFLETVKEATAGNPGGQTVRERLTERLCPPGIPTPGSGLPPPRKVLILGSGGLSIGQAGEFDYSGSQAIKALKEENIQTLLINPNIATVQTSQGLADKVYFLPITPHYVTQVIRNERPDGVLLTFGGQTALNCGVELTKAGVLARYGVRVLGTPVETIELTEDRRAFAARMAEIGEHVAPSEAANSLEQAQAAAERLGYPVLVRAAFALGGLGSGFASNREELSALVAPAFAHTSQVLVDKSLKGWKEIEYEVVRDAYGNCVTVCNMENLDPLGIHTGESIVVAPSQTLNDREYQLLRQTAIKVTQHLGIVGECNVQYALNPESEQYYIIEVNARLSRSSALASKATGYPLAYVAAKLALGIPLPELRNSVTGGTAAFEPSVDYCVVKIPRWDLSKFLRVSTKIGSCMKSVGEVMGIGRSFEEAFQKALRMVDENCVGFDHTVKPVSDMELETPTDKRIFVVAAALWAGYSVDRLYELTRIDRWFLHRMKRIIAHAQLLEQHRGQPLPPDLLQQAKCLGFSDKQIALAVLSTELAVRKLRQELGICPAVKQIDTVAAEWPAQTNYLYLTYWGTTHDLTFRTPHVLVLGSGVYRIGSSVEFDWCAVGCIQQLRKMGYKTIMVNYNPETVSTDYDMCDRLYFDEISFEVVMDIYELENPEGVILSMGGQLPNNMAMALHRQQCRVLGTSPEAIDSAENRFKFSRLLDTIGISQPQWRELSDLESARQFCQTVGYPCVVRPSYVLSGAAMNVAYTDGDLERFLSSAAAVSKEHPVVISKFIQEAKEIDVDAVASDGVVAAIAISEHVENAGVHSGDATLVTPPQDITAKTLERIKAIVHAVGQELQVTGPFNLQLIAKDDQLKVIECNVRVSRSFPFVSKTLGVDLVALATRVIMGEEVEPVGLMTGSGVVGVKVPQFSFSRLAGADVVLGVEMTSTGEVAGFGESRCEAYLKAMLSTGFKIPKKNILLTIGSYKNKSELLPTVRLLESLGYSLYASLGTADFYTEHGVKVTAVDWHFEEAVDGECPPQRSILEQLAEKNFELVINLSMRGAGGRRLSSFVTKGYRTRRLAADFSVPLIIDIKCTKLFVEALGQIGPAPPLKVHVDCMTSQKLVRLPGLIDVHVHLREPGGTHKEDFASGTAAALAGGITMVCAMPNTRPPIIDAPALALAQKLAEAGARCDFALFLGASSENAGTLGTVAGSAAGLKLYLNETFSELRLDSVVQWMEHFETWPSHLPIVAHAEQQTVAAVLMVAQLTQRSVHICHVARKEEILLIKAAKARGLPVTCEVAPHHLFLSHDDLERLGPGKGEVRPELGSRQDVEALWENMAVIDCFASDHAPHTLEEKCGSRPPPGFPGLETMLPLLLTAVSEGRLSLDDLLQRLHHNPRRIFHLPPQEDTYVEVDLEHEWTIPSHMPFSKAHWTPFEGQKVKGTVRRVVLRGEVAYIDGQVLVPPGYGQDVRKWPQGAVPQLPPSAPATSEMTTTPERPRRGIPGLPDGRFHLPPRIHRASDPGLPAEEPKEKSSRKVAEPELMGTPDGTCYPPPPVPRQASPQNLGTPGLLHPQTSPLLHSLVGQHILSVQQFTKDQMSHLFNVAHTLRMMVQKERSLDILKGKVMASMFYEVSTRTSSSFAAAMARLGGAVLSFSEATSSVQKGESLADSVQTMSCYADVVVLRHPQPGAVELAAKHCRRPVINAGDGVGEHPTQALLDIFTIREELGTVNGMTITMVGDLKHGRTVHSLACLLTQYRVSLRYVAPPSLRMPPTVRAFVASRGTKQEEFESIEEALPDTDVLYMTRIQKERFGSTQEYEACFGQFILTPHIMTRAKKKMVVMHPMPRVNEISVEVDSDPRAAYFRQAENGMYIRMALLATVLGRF
UniProt P17081: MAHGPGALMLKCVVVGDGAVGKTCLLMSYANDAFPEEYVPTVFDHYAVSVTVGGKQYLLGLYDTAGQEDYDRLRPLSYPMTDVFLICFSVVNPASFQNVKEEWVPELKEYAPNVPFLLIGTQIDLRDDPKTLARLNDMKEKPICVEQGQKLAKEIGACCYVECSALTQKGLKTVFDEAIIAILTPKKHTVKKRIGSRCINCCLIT
UniProt P14735, whole entry: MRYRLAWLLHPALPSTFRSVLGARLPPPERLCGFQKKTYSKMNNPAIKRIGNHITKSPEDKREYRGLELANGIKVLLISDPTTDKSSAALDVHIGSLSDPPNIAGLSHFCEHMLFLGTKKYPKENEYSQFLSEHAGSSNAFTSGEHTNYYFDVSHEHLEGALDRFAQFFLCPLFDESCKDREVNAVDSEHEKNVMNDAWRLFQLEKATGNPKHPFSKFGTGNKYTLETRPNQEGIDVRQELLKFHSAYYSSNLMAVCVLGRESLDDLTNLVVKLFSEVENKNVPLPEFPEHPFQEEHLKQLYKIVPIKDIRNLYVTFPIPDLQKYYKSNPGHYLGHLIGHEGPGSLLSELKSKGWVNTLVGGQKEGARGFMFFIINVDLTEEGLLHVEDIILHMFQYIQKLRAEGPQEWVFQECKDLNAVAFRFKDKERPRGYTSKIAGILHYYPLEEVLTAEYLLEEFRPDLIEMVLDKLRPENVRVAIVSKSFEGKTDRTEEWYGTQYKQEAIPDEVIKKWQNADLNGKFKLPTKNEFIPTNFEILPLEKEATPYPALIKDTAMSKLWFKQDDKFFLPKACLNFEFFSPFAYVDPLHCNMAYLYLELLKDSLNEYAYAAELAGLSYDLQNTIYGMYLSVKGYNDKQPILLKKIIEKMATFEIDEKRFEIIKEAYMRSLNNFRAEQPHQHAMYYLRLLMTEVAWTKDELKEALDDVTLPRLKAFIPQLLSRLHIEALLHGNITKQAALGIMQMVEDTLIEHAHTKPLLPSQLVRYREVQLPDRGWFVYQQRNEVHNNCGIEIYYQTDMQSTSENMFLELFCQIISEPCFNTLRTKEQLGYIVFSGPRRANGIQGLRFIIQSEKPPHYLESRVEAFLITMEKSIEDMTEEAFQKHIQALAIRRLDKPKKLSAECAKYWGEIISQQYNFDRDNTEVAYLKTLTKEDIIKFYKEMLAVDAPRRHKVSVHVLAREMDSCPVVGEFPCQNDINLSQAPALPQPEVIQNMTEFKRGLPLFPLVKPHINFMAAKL
UniProt P28070, whole entry: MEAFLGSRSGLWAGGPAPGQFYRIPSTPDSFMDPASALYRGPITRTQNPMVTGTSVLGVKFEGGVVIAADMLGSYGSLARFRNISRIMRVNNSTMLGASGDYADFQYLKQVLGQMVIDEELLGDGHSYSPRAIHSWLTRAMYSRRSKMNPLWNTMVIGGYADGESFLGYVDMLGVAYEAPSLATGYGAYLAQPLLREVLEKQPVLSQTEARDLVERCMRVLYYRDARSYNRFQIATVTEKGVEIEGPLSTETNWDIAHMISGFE

| Target | log2 fold change |
| --- | --- |
| PGAM1 (peptide sequence: RSYDVPPPPMEPDHPFYSNISK, peptide start residue: 117) (UniProt P18669) | 0.2 |
| DNAJB2 (peptide sequence: SVSTSTTFVQGR, peptide start residue: 166) (UniProt P25686) | 0.205 |
| PFKFB1 (peptide sequence: IGGDSGLSVR, peptide start residue: 268) (UniProt P16118) | 0.58 |
| TNFAIP3 (peptide sequence: CRAPACDHFGNAK, peptide start residue: 762) (UniProt P21580) | -0.371 |
| ZKSCAN1 (peptide sequence: HKIIHTGEKPYECSECGK, peptide start residue: 395) (UniProt P17029) | -1.09 |
| GADD45A (peptide sequence: MDKVGDALEEVLSK, peptide start residue: 16) (UniProt P24522) | 0.0129 |
| XPA (peptide sequence: LAARPYSATAAAATGGMANVK, peptide start residue: 43) (UniProt P23025) | -0.0727 |
| HSP90B1 (peptide sequence: IADDKYNDTFWKEFGTNIK, peptide start residue: 475) (UniProt P14625) | 0.364 |
| ZNF16 (peptide sequence: TFSQSSTLIQHQR, peptide start residue: 553) (UniProt P17020) | -0.217 |
| UniProt P23582 (peptide sequence: KGLSKGCFGLK, peptide start residue: 104) | -0.0112 |
| CSRP1 (peptide sequence: SCFLCMVCK, peptide start residue: 33) (UniProt P21291) | 0.28 |
| UniProt P24928 (peptide sequence: FGVEQPEGDEDLTKEKGHGGCGR, peptide start residue: 164) | -0.96 |
| PRKCH (peptide sequence: CHHLIVTACTCQNNINKVDSK, peptide start residue: 214) (UniProt P24723) | 0.599 |
| ERCC3 (peptide sequence: LNKPYIYGPTSQGER, peptide start residue: 575) (UniProt P19447) | -0.152 |
| PSMB6 (peptide sequence: QVLLGDQIPK, peptide start residue: 221) (UniProt P28072) | -0.174 |
| EPHA1 (peptide sequence: LVKKEPR, peptide start residue: 455) (UniProt P21709) | -0.322 |
| ERCC2 (peptide sequence: FGKDVDGK, peptide start residue: 126) (UniProt P18074) | -0.443 |
| TGM2 (peptide sequence: DLYLENPEIK, peptide start residue: 581) (UniProt P21980) | 0.217 |
| CAD (peptide sequence: FLSSAAAVSKEHPVVISK, peptide start residue: 1110) (UniProt P27708) | -0.402 |
| RHOQ (peptide sequence: CVVVGDGAVGK, peptide start residue: 6) (UniProt P17081) | -0.246 |
| PTPN2 (peptide sequence: IGLEEEKLTGDR, peptide start residue: 318) (UniProt P17706) | 0.126 |
| CREB1 (peptide sequence: KILNDLSSDAPGVPR, peptide start residue: 122) (UniProt P16220) | -0.0299 |
| IDE (peptide sequence: GWFVYQQR, peptide start residue: 775) (UniProt P14735) | -0.409 |
| OSBP (peptide sequence: VQPVIGENGGDAR, peptide start residue: 655) (UniProt P22059) | -0.262 |
| PSMB4 (peptide sequence: AIHSWLTR, peptide start residue: 132) (UniProt P28070) | 0.0213 |
| UniProt P15036 (peptide sequence: LADPDEVAR, peptide start residue: 393) | -0.0228 |
| VCL (peptide sequence: QVATALQNLQTK, peptide start residue: 465) (UniProt P18206) | 0.254 |
| UniProt P24539 (peptide sequence: HVVQSISTQQEKETIAK, peptide start residue: 222) | -0.576 |
